Experimental data: PubChem BioAssay AID504444 (National Center for Advancing Translational Sciences (NCATS), 2011)
Hit rate of the full screen: of about 360,000 compounds, about 7,500 (2.1%) were called active. The inconclusive results got no clear call from the source; some entries with a clear call stand among them for comparison. The call rests on the fitted dose curve; in most records, active means well fitted inhibition curve with a large enough effect; inconclusive means small, poorly fitted or top-dose-only effect, or effect the other way; inactive means flat fitted curve, though single readings scatter. Potencies beside an inconclusive call are fits to weak or partial responses and may not hold up.
On the % scale 0 is the no-effect control and ±100 the full control effect; potency means the concentration at half of the fitted maximal effect.

Experiment: Nrf2 qHTS screen for inhibitors; further: nearly all actives have a fitted effect of over 60% in size
Settings: A549 ARE-Fluc reporter, luciferase luminescence, 18-24 h; activity change, negative = inhibition: at 46 µM (top of the series)
How it was run: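 In this cell-based qHTS, ARE-driven firefly luciferase in A549 cells reports Nrf2 activity; the luminescent signal after BugLite lysis is the measured value, with a prior CellTiter-Fluor read for cell health.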
In the case of Cc1cccc(NCC(O)Cn2cnc3c2c(=O)n(C)c(=O)n3C)c1 (stereo not given), the Potency is reported as inconclusive: 23.1 µM [falling, single point].
In the case of CCOc1ccc(-c2nnn(CC(=O)NCc3ccccc3)n2)cc1, the Potency is reported as inconclusive: 18.4 µM [falling, single point].
In the case of O=C(CCc1ccc(S(=O)(=O)N2CCOCC2)cc1)Nc1ccccc1F, the Potency is reported as inconclusive: 14.6 µM [falling, partial curve, poor fit].
With O=c1c(Cc2ccccc2)c(O)nc2n1CCS2 the Potency was inconclusive: 0.82 µM [falling, partial curve, poor fit].
For Cc1cc(C)c2nc(NNC(=O)c3ccc(S(=O)(=O)N4CC(C)CC(C)C4)cc3)sc2c1 (stereo not given), the Potency was inconclusive: 4.61 µM [falling, partial curve, poor fit].
With CN(Cc1cccs1)c1ncnc2sccc12 the Potency was inconclusive: 20.6 µM [falling, single point].
With COc1cccc(CCNC(=O)c2cnc3sc(N4CCCC4)nn3c2=O)c1 the Potency was inconclusive: 18.4 µM [falling, partial curve].
With CCNC(=O)CC1SC(=Nc2cccc(Cl)c2C)N(C)C1=O (stereo not given) the Potency was inconclusive: 25.9 µM [falling, single point].
With Cc1ccnc(NC(=O)c2ccc(NS(=O)(=O)/C=C/c3ccccc3)cc2)c1 the Potency was “inactive”.
With COC1(C(F)(F)F)NC(=O)N(c2ccc(F)cc2)C1=O (stereo not given) the Potency was “inactive”.
With Clc1ccc2c(NCc3ccccc3)ccnc2c1 the Potency was inconclusive: 8.2 µM [falling, partial curve, poor fit].
With CCOC(=O)c1c(NC(=O)Cn2cnc([N+](=O)[O-])n2)sc(C)c1C the Potency was inconclusive: 18.4 µM [activator, partial curve, poor fit].
With O=C(N/N=C/c1ccccc1F)c1ccc(COc2ccccc2Cl)o1 the Potency was inconclusive: 32.6 µM [falling, partial curve, poor fit].
With COc1ccc(CCNC(=O)C2CCN(C(=O)c3ccc(OC)c(OC)c3)CC2)cc1 the Potency was inconclusive: 16.4 µM [falling, single point].
In the case of COc1ccc(C2Nc3ccccc3C(=O)N2c2ccc(C)cc2)cc1Cn1nc(C)c([N+](=O)[O-])c1C (stereo not given), the Potency is reported as inconclusive: 2.31 µM [activator, partial curve].
With Cc1ccc(S(=O)(=O)N2CCN(c3cccc(C)c3)CC2)cc1 the Potency was inconclusive: 4.11 µM [falling, full curve, poor fit].
In the case of COc1ccc(CNC(=O)c2cc(-c3cc(C)ccc3O)n[nH]2)cc1, the Potency is reported as inconclusive: 29.1 µM [activator, single point].
With CCOc1ccc(CO/N=C/c2c(C)[nH]c(=O)[nH]c2=O)cc1 the Potency was inconclusive: 4.61 µM [falling, full curve].
For Cc1ccc(Nc2nnc(C)c3ccccc23)c(C)c1, the Potency was inconclusive: 25.9 µM [falling, single point].
With OC1CCCCC1Sc1nc2ccccc2s1 (stereo not given) the Potency was inconclusive: 10.3 µM [activator, partial curve].
With COc1ccc(CC(=O)Nc2cc3oc4ccccc4c3cc2OC)cc1 the Potency was inconclusive: 18.4 µM [activator, single point].
With CN1CCN(Cc2c(O)ccc3occ(C(=O)c4ccccc4)c23)CC1 the Potency was inconclusive: 0.116 µM [falling, partial curve, poor fit].
With CCOc1ccc(-c2c(C)nn3c(C)c(C(=O)NC(C)c4ccccc4)cnc23)cc1OCC (stereo not given) the Potency was inconclusive: 29.1 µM [falling, single point].
In the case of CCc1ccc(CNC(=O)c2cc3c(C)nc4ccccc4c3o2)cc1, the Potency is reported as active: 14.6 µM.
With CC1CCCN(C(=O)Cn2nnc(-c3ccccc3F)n2)C1 (stereo not given) the Potency was inconclusive: 2.59 µM [activator, full curve, poor fit].
In the case of CNc1ccccc1-n1ccc(-c2ccccc2)n1, the Potency is reported as inconclusive: 23.1 µM [activator, partial curve, poor fit].
With CCOC(=O)c1ccc(NS(=O)(=O)c2cc(-c3nnnn3CC)ccc2OC)cc1 the Potency was inconclusive: 2.91 µM [falling, partial curve, poor fit].
For Cc1ccc(/C=C/S(=O)(=O)Nc2ccc(C)cc2)cc1, the Potency was “inactive”.
In the case of Cn1c(N)c(S(=O)(=O)N2CCN(c3ccccc3F)CC2)c(=O)n(C)c1=O, the Potency is reported as inconclusive: 7.31 µM [activator, partial curve, poor fit].
In the case of Cc1cccc(N=C2NN=C(c3c(C)[nH]c4ccccc34)CS2)c1, the Potency is reported as inconclusive: 29.1 µM [falling, single point].
For COc1ccc(/C=C2/SC(=S)N(CCCC(=O)Nc3ccccc3C(=O)O)C2=O)cc1, the Potency was inconclusive: 29.1 µM [falling, single point].
For COc1ccc(N(C(=O)c2ccccc2OC)C2C=CS(=O)(=O)C2)c(OC)c1 (stereo not given), the Potency was inconclusive: 0.651 µM [activator, partial curve, poor fit].
In the case of CC(Nc1nc(-c2ccccc2)nc2ccccc12)c1ccccc1 (stereo not given), the activity change, negative = inhibition is reported as inconclusive: 29.5% [activator].
In the case of O=C(CSc1ncccn1)NC(=O)NCc1ccccc1, the Potency is reported as inconclusive: 6.51 µM [activator, single point].
For CC(=O)NCc1ccc(S(=O)(=O)N2CCN(S(=O)(=O)c3ccc4ccccc4c3)CC2)cc1, the Potency was inconclusive: 23.1 µM [falling, partial curve, poor fit].
With CCN(C(=O)c1nn(C)c2c1CSc1ccccc1-2)c1cccc(C)c1 the Potency was inconclusive: 29.1 µM [activator, single point].
For CCOC(=O)CN1C(=O)S/C(=C/c2cccc([N+](=O)[O-])c2O)C1=O, the Potency was inconclusive: 25.9 µM [falling, partial curve, poor fit].
For CCOc1ccc(NC(=O)c2cccc(OC(=S)N3CCOCC3)c2)cc1, the Potency was inconclusive: 29.1 µM [falling, single point].
In the case of CC1CCc2c(sc3ncnc(SCC(=O)c4ccccc4)c23)C1 (stereo not given), the Potency is reported as inconclusive: 0.291 µM [activator, full curve, poor fit].
In the case of CC(=O)Nc1cccc(C(=O)/C=C/c2ccc(Br)cc2)c1, the Potency is reported as inconclusive: 23.1 µM [falling, single point].
